Assay results published in US12138294B2, “Transgenic corn with antifungal peptide AGM182 (DN:0113.18)” (GENVOR, INC., priority 2018, dated 2024).
“And” between values parts separate entries of the source, which are not always exact repeats. Equal values may be shown once. At least one peptide structure holds a part that was inferred or is arguable (an end, a ring closure or a residue). Bridge positions count the residues as written; N and C are the ends. Peptide text beside a SMILES is read from it.

System: A. flavus strain 70-GFP
Parameters: species or system Aspergillus flavus
Conditions: in vivo

CC[C@H](C)[C@H](NC(=O)[C@@H]1CSSC[C@H](NC(=O)[C@H](CC(C)C)NC(=O)[C@H](CCCNC(=N)N)NC(=O)[C@H](C)NC(=O)[C@H](CCCCN)NC(=O)[C@@H](NC(=O)[C@@H](N)CCCCN)[C@@H](C)CC)C(=O)N[C@@H](CC(C)C)C(=O)NCC(=O)N[C@@H](CCCCN)C(=O)N[C@@H](Cc2ccccc2)C(=O)N1)C(=O)N[C@@H](CCCCN)C(=O)N[C@@H](C)C(=O)N[C@@H](CCCNC(=N)N)C(=O)N[C@@H](CC(C)C)C(=O)N[C@@H](CCCCN)C(=O)O [AGM182] (H-KIKARLCLGKFCIKARLK-OH; disulfide 7-12)
reduction in aflatoxin levels compared to isogenic negative control: 76-98% and > 95%
